# Measurements from article PMC12548414.
# The campaign covered roughly 1,600 compounds. About 20 (1%) showed an effect of 50% or more. This is one part of the list.
# Tested on: T1, E. coli pLC1021 (luc-trpAt trans-translation reporter)
# T1 construct: pLC1021 luc-trpAt reporter strain
# Parameters: species or system Escherichia coli pLC1021; luc-trpAt non-stop luciferase reporter; luminescence rises when trans-translation is inhibited; normalized to KKL-35 and DMSO
# Conditions: reporter signal, KKL-35 = 100%; rise means trans-translation inhibition; 2 h, 20 µM
# Outline: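 Cells carrying the non-stop luc-trpAt reporter were exposed to 20 µM compound for 2 h at room temperature, then Bright-Glo was added and luminescence read at 560 nm after 10 min. Signals were normalised per plate to DMSO and 20 µM KKL-35 wells. Hits: activity one SD above the median; ≥2 biological repeats averaged.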
row,SMILES,% activation
1,CN(CC1Cc2ccccc2CN1C)C(=O)c1cc(COc2cncc(Cl)c2)on1 (stereo not shown) [KKL-1186],0%
2,Cc1ccc(C(NC(=O)C2(c3ccc(Cl)cc3)CCOCC2)c2cccnc2)cc1 (stereo not shown) [KKL-0692],19%
3,Cc1ccc(Cl)cc1N=C1C=C(NS(=O)(=O)c2cccs2)c2ccccc2C1=O [KKL-1115],0%
4,OC(CNCCc1ccc(C(F)(F)F)cc1)COc1cccc2ccccc12 (stereo not shown) [KKL-0794],0%
5,O=C(Nc1nccs1)c1ccc(CSc2ccccc2)o1 [KKL-0586],0%
6,COc1cc2cc(-c3nc4ccccc4[nH]3)c(N)nc2cc1OC [KKL-0395],22%
7,COc1cccc(C2(NC(=O)c3cnc(SC)nc3)CCCC2)c1 [KKL-0678],4%
8,COc1ccc2c(c1)NC1(COC3(CCN(Cc4ccccc4Cl)CC3)C1)c1cccn1-2 (stereo not shown) [KKL-0446],3%
9,O=C(/C=C/c1ccco1)Nc1nc(-c2ccccn2)cs1 [KKL-0814],0%
10,CCCn1nnc(NC(=O)COc2ccc(C3CCCCC3)cc2)n1 [KKL-1397],0%
11,Cc1cccc(-c2cccc(NC(=O)C3CCCN(Cc4ccc(C#CCO)s4)C3)c2)c1 (stereo not shown) [KKL-1130],4%
12,C=Cn1cc(CN2CCCN(c3cccc(OC)c3)CC2)c(C)n1 [KKL-0548],0%
13,CCCC(=O)OCCNc1cc(SCc2ccco2)c2nonc2c1[N+](=O)[O-] [KKL-1142],0%
14,COc1ccc(CCNc2cc(C)nc3c(-c4ccc(Cl)cc4)c(C)nn23)cc1OC [KKL-0901],0%
15,CC(=O)c1ccc2[nH]c3ccc(C(C)=O)cc3c2c1 [KKL-1408],0%
16,CCC(=O)NC(=S)Nc1ccc(NC(=O)c2cc(I)ccc2Cl)cc1 [KKL-1487],7%
17,CSCCC(=O)N1CCC(C(=O)Nc2cccc(-c3cccc(Cl)c3)c2)CC1 [KKL-1141],0%
18,CC(C)(C)c1ccc(-c2c[n+](-c3ccc(Br)cc3)c3n2CCCS3)cc1 [KKL-0949],0%
19,Cc1ccc(/N=C(\N)Nc2nc(C)cc(N3CCCCC3)n2)c(C)c1 [KKL-1617],0%
20,CC(=O)Nc1ccc2cccc(O)c2n1 [KKL-0957],55%
21,O=C(Nc1ccc(Cl)cc1)c1cc2c(cc1O)[nH]c1ccccc12 [KKL-0896],102%
22,CCOC(=O)CSc1nnc(-c2ccc([N+](=O)[O-])cc2)o1 [KKL-1633],0%

# An excerpt from above in order of length of the SMILES, high to low:
row,SMILES,% activation
2,Cc1ccc(C(NC(=O)C2(c3ccc(Cl)cc3)CCOCC2)c2cccnc2)cc1 (stereo not shown) [KKL-0692],19%
21,O=C(Nc1ccc(Cl)cc1)c1cc2c(cc1O)[nH]c1ccccc12 [KKL-0896],102%
22,CCOC(=O)CSc1nnc(-c2ccc([N+](=O)[O-])cc2)o1 [KKL-1633],0%
15,CC(=O)c1ccc2[nH]c3ccc(C(C)=O)cc3c2c1 [KKL-1408],0%
20,CC(=O)Nc1ccc2cccc(O)c2n1 [KKL-0957],55%

# Remaining list, next part.

row,SMILES,% activation
1,COC(=O)COc1ccc(NC(=O)c2ccccc2F)cc1 [KKL-1387],0%
2,O=C(NCc1ccco1)c1cnn2c1NC(c1ccc(Br)cc1)CC2C(F)(F)F (stereo not shown) [KKL-0962],14%
3,COC(=O)COc1ccc(NC(=O)COc2cccc(C)c2)cc1 [KKL-1504],0%
4,CC1(C)Oc2ccc3ccc(=O)oc3c2C(C=O)=C1Cl [KKL-0786],0%
5,C1=C(CN2CCC3(CC2)Nc2ccccc2-n2cccc23)COc2ccccc21 [KKL-1209],7%
6,CCCc1ccc(S(=O)(=O)Nc2ccc(CN3CCN(CC4CC4)CC3)cc2)cc1 [KKL-1800],3%
7,CCOC(=O)CSc1nnc(-c2cc(OC)c(OC)c(OC)c2)o1 [KKL-1514],0%
8,Cc1nc2sccn2c1C(=O)N1CCc2c([nH]c3ccccc23)C1c1ccc(F)cc1 (stereo not shown) [KKL-0488],4%
9,COc1ccc(Cl)cc1NC(=O)CN1CCC(c2nc3cc(Cl)ccc3[nH]2)CC1 [KKL-0528],0%
10,COc1ccc(-c2nc(-c3cccc(NC(=O)Cc4ccc(F)cc4)c3)no2)cc1OC [KKL-1809],4%
11,CC(C)(C)c1ccccc1OCCCON1C(=N)N=C(N)NC1(C)C [KKL-1847],15%
12,N=C1SCC(=O)N1c1ncc(Cc2cccc(Cl)c2)s1 [KKL-1645],2%
13,O=C(Nc1nc2c(Cl)cccc2s1)c1ccc([N+](=O)[O-])o1 [KKL-1312],0%
14,O=C(c1cc2c(s1)CCC2)N1CCN(Cc2ccc3c(c2)OCO3)CC1 [KKL-1851],0%
15,CCCN(CCC)CC(O)Cn1cc(/C=C/C(=O)c2ccccc2)c2ccccc21 (stereo not shown) [KKL-1230],0%
16,O=[N+]([O-])c1c(-n2cccn2)nn(-c2ccccc2)c1C(Cl)Cl [KKL-1260],0%
17,COc1ccc2[nH]c(CN3CCC(O)(c4cccc(C)c4)CC3)c(C)c2c1 [KKL-0926],5%
18,COC(=O)c1ccc(Oc2ccc(-c3csc(C)n3)cc2F)nn1 [KKL-1737],3%
19,COc1cccc(-c2ccccc2NC(=O)C2CCN(Cc3cc4ccccc4[nH]3)CC2)c1 [KKL-1150],2%
20,CSc1ccccc1C(=O)Nc1nc(-c2ccccn2)cs1 [KKL-1845],8%
21,Cc1ccc2oc(C(=O)N3CCC(Oc4cccnc4)CC3)cc2c1 [KKL-0560],4%
22,CCCCNC(=O)c1cc2n(n1)C(C(F)(F)F)CC(c1ccccc1)N2 (stereo not shown) [KKL-1022],3%

row,SMILES,% activation
1,O=C(OCc1c(F)cccc1Cl)c1ccc(-n2ncc(Cl)c(Cl)c2=O)cc1 [KKL-1808],4%
2,CCc1nc2ccccc2n1CC(O)COc1ccc(I)cc1 (stereo not shown) [KKL-0760],0%
3,CC(C)c1ccc(Nc2nnc(SCC(=O)Nc3ncc(S(=O)(=O)c4ccc([N+](=O)[O-])cc4)s3)s2)cc1 [KKL-0852],1%
4,Cc1cc(C)cc(Nc2c([N+](=O)[O-])nn(-c3cccc(Cl)c3)[n+]2[O-])c1 [KKL-1097],4%
5,CC1CC(C)(C)Nc2ccc(N=O)cc21 (stereo not shown) [KKL-1625],0%
6,CCOC(=O)C1CCCN(Cc2nc(-c3ccc(Cl)cc3)no2)C1 (stereo not shown) [KKL-0486],2%
7,COCCN[C@H]1C[C@@H]2c3[nH]c4ccccc4c3C[C@@H](C(=O)OC)N2[C@H](c2ccc(C(F)(F)F)cc2)C1 [KKL-1595],0%
8,c1ccc(CN2CCC(Nc3nc(-c4cccs4)nc4ccccc34)CC2)cc1 [KKL-0797],0%
9,COCc1nnc(NC(=O)c2nnn(-c3ccc(F)cc3)c2C)s1 [KKL-0929],7%
10,O=C1C=C(c2cccs2)C[C@H](c2ccccc2)[C@H]1n1nnc([N+](=O)[O-])n1 [KKL-1517],0%
11,CCOC(=O)c1ccc(NC(S)=NCCN2CCc3ccccc3C2)cc1 [KKL-1583],0%
12,COc1cc(Cc2cnc(N)nc2N)c2cnccc2c1N(C)C [KKL-1753],0%
13,O=C(C[n+]1nc(CNc2ccc(Cl)cc2)n2c1CCCCC2)c1ccc(Br)cc1 [KKL-1021],9%
14,COC(=O)[C@@H]1Cc2c([nH]c3ccccc23)[C@H]2C[C@H](NCCN3CCOCC3)C[C@@H](c3ccc(Cl)c(F)c3)N21 [KKL-0314],9%
15,COc1ccccc1CN(CCCn1ccnc1)Cc1ccc(Cl)c(Cl)c1 [KKL-0327],16%
16,C=CCc1cc(C)ccc1OCCCn1ccnc1 [KKL-1274],0%
17,Cc1ccc(C(=O)Nc2ccc([N+](=O)[O-])cc2)s1 [KKL-0604],0%
18,COC(=O)COc1ccc(NC(=O)c2cccc(C)c2)cc1 [KKL-1568],0%
19,COc1cc(OC)cc(C(=O)Nc2nc(-c3ccccc3)c(-c3ccccc3)o2)c1 [KKL-1025],15%
20,O=S(=O)(Nc1cc(Br)c(O)c2ccccc12)c1ccc(F)cc1 [KKL-1482],0%
21,CCCC(=O)NC(=S)Nc1ccc(N2CCN(C(=O)c3cccs3)CC2)c(Cl)c1 [KKL-0912],0%
22,Nc1ccccc1Nc1ccccc1 [KKL-0803],4%

row,SMILES,% activation
1,O=C(Nc1ccc(OC(F)(F)F)cc1)Nc1cccc([N+](=O)[O-])c1 [KKL-1525],0%
2,NC1CCc2nc(-c3cccnc3)nc(Nc3ccc(C(F)(F)F)cc3)c2C1 (stereo not shown) [KKL-0526],137%
3,Cn1c(Sc2cnn(-c3ccccc3)c(=O)c2Br)nnc1-c1ccccc1 [KKL-0292],0%
4,CNc1snc(C)c1C(=O)NCCOc1ccc(OC)cc1 [KKL-1874],0%
5,CCCCCCCCCC(=NO)c1ccccn1 [KKL-1024],15%
6,COc1cc2ccccc2cc1C(=O)NCc1cccc(-c2ccccc2OC)c1 [KKL-1789],6%
7,COc1ccc(CCNC(=O)C2(n3cnnn3)CCCCC2)cc1 [KKL-1856],3%
8,Cc1ccc(-n2cc(CN3CCC(CO)(Cc4cccc(C(F)(F)F)c4)CC3)cn2)cc1 [KKL-0651],0%
9,CCC(C(=O)Nc1ccc(CC(=O)OC)cc1)c1ccccc1 (stereo not shown) [KKL-0614],9%
10,CCOC(=O)COc1ccc(S(=O)(=O)Nc2c(C)cccc2CC)cc1 [KKL-1460],0%
11,C[C@H]1CN(C(=O)c2cc(-c3cccs3)on2)[C@@H](C)CN1Cc1ccco1 [KKL-0503],0%
12,CCOc1ccc2nc(NC(=O)c3ccccn3)sc2c1 [KKL-0810],0%
13,CCCOC(=O)c1ccc(NC(=O)c2ccc(Br)o2)cc1 [KKL-1068],0%
14,CC(C)(C)c1cc(NCCCn2ccnc2)n2ncc(-c3ccc(Cl)cc3)c2n1 [KKL-1011],9%
15,COC(=O)[C@@H](NC(=O)c1cc(COc2cccc(C(F)(F)F)c2)on1)c1ccccc1 [KKL-1189],2%
16,Cc1nn2c(O)c3c(nc2c1-c1ccccc1)CCCC3 [KKL-1126],0%
17,CSc1ncc(C(=O)NC(C)c2ccc3c(c2)CCC3)cn1 (stereo not shown) [KKL-0694],5%
18,OC(COc1ccc2ccccc2c1)CN1CCCN(CC(O)COc2ccc3ccccc3c2)CC1 (stereo not shown) [KKL-1527],0%
19,O=C(Nc1ccccc1-c1nc(C2CCC2)cs1)OCC1CCNCC1 [KKL-1752],2%
